Laboratory results published in article PMC12661054, “The CIP2A-TOPBP1 axis facilitates mitotic DNA repair via MiDAS and MMEJ” (Nature Communications, 2025).

Assays:
[1] = target: T1, Flu-SLX4_pT1260 (human); test: fluorescence polarisation; 100 nM fluorescein-labelled SLX4 peptide, increasing concentrations of TOPBP1 BRCT fragment; room temperature; 25 mM HEPES pH 7.5, 150 mM NaCl, 1 mM EDTA, 0.25 mM TCEP, 0.002% Tween 20; single site with non-specific component; both purified
T1 sequence (peptide, fluorescein ('Flu') on the N-terminus; phosphothreonine at Thr1260): GYGTSWLVPATPLASRSR

[2] = target: T2, Flu-SLX4_pT1476 (human); test: as above
T2 sequence (peptide, fluorescein ('Flu') on the N-terminus; phosphothreonine at Thr1476): GYGSPGLLDTTPIRGSCT

| Substance | binding [1] | binding [2] |
| --- | --- | --- |
| recombinant TOPBP1 BRCT 7-8 domain containing fragment (human) (domain or fragment) | no binding | no binding |
| recombinant TOPBP1 BRCT 4-5 domain containing fragment (human) (domain or fragment) | no binding | no binding |

These are yes or no findings as the source states them, for the method shown.
